Numbering of substitutions follows the chain as printed. Results are given in words; binding and its absence hold for the method and conditions named. Binding seen in cells or lysates may run through a third protein. Some entries that bind do so weakly or less than the wild type. For some assays here: Tags and fused reporters may be left off the sequences shown.
Columns and labels:
Test in all cases: co-IP
[1] = molecular target: T1, GFP-SNX17 (human) (UniProt Q15036)
T1 sequence: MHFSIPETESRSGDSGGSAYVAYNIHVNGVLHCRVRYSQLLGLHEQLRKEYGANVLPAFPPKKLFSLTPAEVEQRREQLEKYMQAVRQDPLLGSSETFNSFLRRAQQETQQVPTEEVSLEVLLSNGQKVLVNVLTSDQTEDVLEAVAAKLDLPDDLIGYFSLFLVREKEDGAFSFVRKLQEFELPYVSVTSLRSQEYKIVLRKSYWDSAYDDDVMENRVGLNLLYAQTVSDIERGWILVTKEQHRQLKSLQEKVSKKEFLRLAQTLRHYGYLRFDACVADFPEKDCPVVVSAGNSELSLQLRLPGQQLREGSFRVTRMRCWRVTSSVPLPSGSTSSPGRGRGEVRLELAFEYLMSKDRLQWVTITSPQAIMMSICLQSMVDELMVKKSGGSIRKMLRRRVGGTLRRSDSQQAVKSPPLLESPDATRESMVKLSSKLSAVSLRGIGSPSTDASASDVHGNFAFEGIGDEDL

By UniProt entry, the sequences of proteins in these tests, tags left out. Residues count along the entry.
UniProt Q07954, residues 20-4544: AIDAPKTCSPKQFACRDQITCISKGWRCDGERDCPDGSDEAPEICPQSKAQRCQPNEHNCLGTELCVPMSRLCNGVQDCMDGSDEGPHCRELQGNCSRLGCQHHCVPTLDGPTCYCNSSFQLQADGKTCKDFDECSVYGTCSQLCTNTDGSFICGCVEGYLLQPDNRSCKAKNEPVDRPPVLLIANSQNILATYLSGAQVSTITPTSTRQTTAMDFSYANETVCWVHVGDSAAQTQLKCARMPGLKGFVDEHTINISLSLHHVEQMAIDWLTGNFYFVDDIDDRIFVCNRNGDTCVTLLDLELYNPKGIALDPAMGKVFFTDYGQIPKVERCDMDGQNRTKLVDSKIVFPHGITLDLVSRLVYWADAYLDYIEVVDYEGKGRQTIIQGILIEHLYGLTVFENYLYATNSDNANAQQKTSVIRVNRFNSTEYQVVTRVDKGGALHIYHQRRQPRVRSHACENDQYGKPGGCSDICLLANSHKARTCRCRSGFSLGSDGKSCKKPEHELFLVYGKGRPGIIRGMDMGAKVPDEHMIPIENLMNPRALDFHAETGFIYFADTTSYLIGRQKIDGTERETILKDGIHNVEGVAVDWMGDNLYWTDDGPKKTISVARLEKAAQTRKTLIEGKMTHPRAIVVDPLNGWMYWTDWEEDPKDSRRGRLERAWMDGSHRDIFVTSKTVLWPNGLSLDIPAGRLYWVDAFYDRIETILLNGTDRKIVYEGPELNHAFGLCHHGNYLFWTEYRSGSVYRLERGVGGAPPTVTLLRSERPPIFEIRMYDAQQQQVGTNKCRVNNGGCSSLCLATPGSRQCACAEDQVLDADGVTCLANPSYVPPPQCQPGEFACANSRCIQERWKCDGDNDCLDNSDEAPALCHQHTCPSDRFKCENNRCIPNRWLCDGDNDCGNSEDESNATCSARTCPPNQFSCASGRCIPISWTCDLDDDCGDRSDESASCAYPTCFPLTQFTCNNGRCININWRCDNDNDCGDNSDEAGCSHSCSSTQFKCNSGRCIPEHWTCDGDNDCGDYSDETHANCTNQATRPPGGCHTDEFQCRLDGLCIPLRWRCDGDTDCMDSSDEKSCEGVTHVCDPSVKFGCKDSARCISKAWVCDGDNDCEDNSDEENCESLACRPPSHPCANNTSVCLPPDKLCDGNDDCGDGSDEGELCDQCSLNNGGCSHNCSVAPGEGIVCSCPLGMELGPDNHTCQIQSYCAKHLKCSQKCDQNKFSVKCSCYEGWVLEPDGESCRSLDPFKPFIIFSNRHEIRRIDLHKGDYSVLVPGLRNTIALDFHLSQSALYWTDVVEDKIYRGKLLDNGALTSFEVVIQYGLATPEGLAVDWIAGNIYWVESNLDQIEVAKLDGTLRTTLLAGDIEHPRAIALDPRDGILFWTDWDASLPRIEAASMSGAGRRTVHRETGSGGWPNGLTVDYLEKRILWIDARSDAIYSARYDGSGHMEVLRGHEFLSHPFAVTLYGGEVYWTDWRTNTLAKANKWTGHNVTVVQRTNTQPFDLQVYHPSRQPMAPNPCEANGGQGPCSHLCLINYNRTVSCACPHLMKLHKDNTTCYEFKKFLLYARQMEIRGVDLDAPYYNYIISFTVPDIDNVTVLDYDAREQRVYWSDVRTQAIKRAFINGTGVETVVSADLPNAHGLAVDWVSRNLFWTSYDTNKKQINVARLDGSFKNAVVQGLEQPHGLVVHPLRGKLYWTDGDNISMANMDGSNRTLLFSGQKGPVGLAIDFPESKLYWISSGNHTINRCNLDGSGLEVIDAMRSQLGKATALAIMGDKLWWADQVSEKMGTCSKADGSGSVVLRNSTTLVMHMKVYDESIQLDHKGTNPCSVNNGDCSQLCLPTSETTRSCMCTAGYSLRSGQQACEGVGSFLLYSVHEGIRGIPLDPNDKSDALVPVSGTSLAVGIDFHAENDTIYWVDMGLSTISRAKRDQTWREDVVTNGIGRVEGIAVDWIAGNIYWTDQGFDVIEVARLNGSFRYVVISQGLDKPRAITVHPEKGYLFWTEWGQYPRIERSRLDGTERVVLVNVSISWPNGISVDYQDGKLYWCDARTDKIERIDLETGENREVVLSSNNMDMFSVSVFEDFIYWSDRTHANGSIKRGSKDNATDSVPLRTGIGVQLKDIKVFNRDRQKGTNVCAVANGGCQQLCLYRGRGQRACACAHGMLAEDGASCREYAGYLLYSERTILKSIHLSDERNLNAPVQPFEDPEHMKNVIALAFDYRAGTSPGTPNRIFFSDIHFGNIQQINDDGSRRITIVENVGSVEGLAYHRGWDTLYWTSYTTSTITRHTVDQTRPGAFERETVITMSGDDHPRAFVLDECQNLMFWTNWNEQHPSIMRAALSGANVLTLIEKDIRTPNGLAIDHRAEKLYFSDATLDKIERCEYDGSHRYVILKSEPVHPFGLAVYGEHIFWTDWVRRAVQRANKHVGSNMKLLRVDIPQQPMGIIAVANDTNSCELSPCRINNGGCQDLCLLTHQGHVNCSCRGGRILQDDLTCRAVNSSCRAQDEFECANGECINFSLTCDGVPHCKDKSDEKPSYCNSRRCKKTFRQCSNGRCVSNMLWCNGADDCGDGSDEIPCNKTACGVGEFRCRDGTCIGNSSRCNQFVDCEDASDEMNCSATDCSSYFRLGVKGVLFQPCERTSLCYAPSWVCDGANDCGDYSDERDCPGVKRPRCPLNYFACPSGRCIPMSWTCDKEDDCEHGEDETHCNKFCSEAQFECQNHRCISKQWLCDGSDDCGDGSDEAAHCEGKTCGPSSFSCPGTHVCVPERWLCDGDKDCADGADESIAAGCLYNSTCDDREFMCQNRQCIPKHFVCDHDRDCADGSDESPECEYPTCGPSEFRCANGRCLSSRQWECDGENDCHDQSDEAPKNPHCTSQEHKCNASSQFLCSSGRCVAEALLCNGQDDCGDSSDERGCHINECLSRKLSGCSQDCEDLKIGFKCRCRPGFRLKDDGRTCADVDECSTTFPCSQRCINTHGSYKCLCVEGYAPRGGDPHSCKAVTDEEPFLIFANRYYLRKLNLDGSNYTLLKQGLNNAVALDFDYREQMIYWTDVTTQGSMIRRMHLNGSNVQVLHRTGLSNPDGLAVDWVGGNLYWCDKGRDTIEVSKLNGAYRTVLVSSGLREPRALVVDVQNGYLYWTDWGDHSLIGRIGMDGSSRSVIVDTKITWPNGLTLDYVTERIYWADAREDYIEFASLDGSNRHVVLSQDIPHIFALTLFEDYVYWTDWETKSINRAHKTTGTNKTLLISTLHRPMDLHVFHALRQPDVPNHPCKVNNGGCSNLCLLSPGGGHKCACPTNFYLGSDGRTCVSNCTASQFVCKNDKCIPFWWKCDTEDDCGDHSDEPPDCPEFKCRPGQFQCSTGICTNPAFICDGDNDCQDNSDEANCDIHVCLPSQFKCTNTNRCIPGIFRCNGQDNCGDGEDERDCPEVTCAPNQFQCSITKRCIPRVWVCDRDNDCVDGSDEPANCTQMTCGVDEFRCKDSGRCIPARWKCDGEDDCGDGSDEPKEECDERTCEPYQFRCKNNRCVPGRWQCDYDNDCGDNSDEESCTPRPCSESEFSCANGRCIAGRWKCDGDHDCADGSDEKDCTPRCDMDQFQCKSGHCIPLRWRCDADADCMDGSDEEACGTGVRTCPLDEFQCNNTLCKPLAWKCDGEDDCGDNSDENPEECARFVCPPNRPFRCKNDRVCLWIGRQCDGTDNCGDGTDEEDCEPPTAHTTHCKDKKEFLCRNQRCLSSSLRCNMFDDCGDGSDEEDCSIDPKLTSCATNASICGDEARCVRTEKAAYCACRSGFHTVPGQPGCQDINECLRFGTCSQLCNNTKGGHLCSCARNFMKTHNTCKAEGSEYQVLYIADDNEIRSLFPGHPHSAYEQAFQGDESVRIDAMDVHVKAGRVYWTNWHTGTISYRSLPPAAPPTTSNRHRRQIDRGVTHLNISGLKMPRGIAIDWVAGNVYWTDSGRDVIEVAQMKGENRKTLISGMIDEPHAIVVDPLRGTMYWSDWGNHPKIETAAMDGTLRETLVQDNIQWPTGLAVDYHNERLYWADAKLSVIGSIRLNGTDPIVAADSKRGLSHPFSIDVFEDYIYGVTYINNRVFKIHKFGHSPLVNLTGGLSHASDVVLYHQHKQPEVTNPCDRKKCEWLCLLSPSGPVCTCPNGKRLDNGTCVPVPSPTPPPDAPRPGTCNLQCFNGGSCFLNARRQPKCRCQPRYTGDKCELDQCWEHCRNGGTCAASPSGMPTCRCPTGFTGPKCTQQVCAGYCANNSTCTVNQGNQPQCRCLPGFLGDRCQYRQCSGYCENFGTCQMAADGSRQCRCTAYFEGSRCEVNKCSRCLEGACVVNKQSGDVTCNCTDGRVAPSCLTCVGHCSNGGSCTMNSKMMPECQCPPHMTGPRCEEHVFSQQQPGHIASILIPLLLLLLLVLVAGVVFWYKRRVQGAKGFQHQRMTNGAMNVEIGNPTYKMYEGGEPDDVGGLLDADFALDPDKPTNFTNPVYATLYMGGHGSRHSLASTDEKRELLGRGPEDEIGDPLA

[2] = molecular target: T2, GFP-SNX17(F462A) (human) (UniProt Q15036)
T2 sequence: T1 sequence with F462A

[3] = molecular target: T3, GFP-SNX17(F462E) (human) (UniProt Q15036)
T3 sequence: T1 sequence with F462E

[4] = molecular target: T4, GFP-SNX17(M384E) (human) (UniProt Q15036)
T4 sequence: T1 sequence with M384E

[5] = molecular target: T5, GFP-SNX17(NFAF-AAAA) (human) (UniProt Q15036)
T5 sequence: T1 sequence with N459A, F460A, F462A

[6] = molecular target: T6, GFP-SNX17(V380D) (human) (UniProt Q15036)
T6 sequence: T1 sequence with V380D

[7] = molecular target: T7, GFP-SNX17(W321A) (human) (UniProt Q15036)
T7 sequence: T1 sequence with W321A

[8] = molecular target: VPS35L(K283E)-GFP (human) (UniProt Q7Z3J2)
[9] = molecular target: VPS35L(R248A)-GFP (human) (UniProt Q7Z3J2)
[10] = molecular target: VPS35L(W280A)-GFP (human) (UniProt Q7Z3J2)
[11] = molecular target: VPS35L-GFP (human) (UniProt Q7Z3J2)

Measured: binding

LRP1 (lipoprotein receptor) in HEK293T lysate (from UniProt Q07954 20-4544)
not listed: [8] | [9] | [10] | [11]
binds: all other assays above

VPS26C in HEK293T lysate (from UniProt O14972 1-297)
binds: [8] | [9] | [10] | [11]
